The structures given here were assigned with low confidence; some may be wrong.
Assays:
IRAK3 [1] = molecular target: T1, IRAK3 (Homo sapiens, UniProt Q9Y616); test: IRAK endogenous HTRF degradation assay (Total-IRAK3 HTRF kit); settings: overnight incubation, lowest percentage of protein remaining
Protocol: Example B2. IRAK Endogenous HTRF Degradation Assay
Cells (~50 k) were plated in Cisbio 96-well low volume white plates (Cisbio: cat #66PL96005). Compounds were dissolved in DMSO and a 3-fold serial dilution was performed using a TECAN D300E. Cells were incubated with the compound overnight. Total-IRAK3 HTRF kit from Cisbio was used for degradation analysis (Cisbio: 63ADK101PEH). Cryptate and D2 antibodies were diluted in Detection buffer as per manufacturers recommendation. Then 2 μL of each solution was added to 16 μL lysate. […] Post incubation with antibodies the HTRF signal was measured using a Perkin Elmer Envision reader and the HTRF signal was calculated using formula: (Emission at 665 nm/Emission at 615 nm)*10,000. […] Normalized luminescence values were plotted on a graph as a function of compound concentration. […] The EC50 value (the half-maximum effective concentration) of a compound for the degradation of the IRAK3 was calculated using a four-parameter logistic model (sigmoidal dose-response model) (FIT=(A+{(B−A)/1+[(C/x)D]})) where C is the inflection point (EC50), D is the […], and A and B are the low and high limits of the fit, respectively). The Ymin was calculated by determining the lowest percentage of target protein remaining following compound treatment. Dmax was calculated from Ymin (% Dmax=100−Ymin). […]

Sequences of proteins named here, by UniProt entry; tags and fusion partners are left off.
UniProt Q9Y616, whole entry: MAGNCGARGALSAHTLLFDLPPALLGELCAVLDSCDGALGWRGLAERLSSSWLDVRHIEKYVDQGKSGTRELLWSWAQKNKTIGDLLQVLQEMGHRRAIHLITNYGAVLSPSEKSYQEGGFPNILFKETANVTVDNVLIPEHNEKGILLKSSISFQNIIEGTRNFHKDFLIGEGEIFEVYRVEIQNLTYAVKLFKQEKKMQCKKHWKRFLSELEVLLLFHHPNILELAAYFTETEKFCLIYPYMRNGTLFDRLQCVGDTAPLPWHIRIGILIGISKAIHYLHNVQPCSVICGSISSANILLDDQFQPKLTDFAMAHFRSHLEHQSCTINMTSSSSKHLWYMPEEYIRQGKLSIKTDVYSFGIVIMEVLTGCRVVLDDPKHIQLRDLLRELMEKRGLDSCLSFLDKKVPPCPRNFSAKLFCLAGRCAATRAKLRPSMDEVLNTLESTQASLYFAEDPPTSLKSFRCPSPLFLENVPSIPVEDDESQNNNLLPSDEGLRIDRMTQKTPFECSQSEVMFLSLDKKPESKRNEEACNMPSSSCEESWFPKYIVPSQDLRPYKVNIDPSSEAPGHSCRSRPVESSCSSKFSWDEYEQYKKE

IRAK3 [2] = molecular target: T1, IRAK3; test: IRAK3 biochemical binding assay (LanthaScreen Eu Kinase Binding, TR-FRET); settings: read-out: IRAK3 binding IC50
Protocol: Example B3. IRAK3 Biochemical Binding Assay
The LanthaScreen® Eu Kinase Binding assay was performed as described by the vendor (ThermoFisher Scientific Waltham, MA). Briefly, 100× solutions of compound were prepared in DMSO via serial dilution of the 10 mM stock solution in a 384-well reagent plate using 3-fold intervals to achieve final concentrations. 1 μL of the compound dilution series were added to the corresponding wells of a 384-well reagent plate containing 32.3 μL of 1× buffer (50 mM HEPES pH 7.4, […], 1 mM EGTA, 0.01% Brij-35). 5 μL of the buffer diluted compounds were transferred to the corresponding wells of a 384-well assay plate. 5 μL of 3× tracer was transferred to each well of the assay plate for a final tracer concentration of 10 nM. Finally, 5 μL of the 3×Eu-Anti-GST and IRAK3 mix was transferred to each well for a final concentration of 2 nM and 10 nM respectively. Reactions were allowed to incubate for 1 hour at room temperature. TR-FRET signal of the interaction (λex340/λem 665/λem 615) was read at room temperature with a delay time of 100 ρs and an integration time of 200 ρs using an Envision plate reader. Background corrected emission signal ratios at each compound concentration were used to calculate percentage of inhibition (% Inhibition). […]
Using these assays, IC50, Dmax, EC50, and DC50 values of the following compounds were determined. […]

Structure (SMILES) | IRAK3 HTRF degradation Ymin (IRAK3 [1]) [%] | IC50 (IRAK3 [2]) [nM]
O=C1CCC(c2ccc(N3CCN(C(=O)CN4CCC(n5cc(Nc6ncc(-c7ccc8c(c7)NC(=O)CO8)n7ccnc67)cn5)CC4)CC3)cc2)C(=O)N1 (stereo not drawn) | 24 | –
Cc1cc(-c2cnc(Nc3cnn([C@H]4CC[C@@H](CCN5CCN(c6ccc(C7CCC(=O)NC7=O)cc6)C[C@H]5C)CC4)c3)c3nccn23)c(F)cc1F (stereo partly drawn) | 19 | 8.2
